Test results as given in PubChem BioAssay AID504467 (National Center for Advancing Translational Sciences (NCATS), 2011).
The campaign covered roughly 330,000 compounds. About 7,700 (2.3%) were called active. This list was built around the results that the source calls inconclusive (neither active nor inactive); the mix of calls is not that of the screen. Calls follow the shape of the dose curve; as a rule, active = well fitted inhibition curve with a large enough effect; inconclusive = small, poorly fitted or top-dose-only effect, or effect the other way; inactive = flat fitted curve, though single readings scatter. A potency beside an inconclusive call is a rough fit, not a confirmed value.

Test: qHTS screen for small molecules that inhibit ELG1-dependent DNA repair in human embryonic kidney (HEK293T) cells expressing luciferase-tagged ELG1; also: nearly all actives have a fitted effect of over 55% in size
Settings: HEK293T ELG1-luciferase reporter, luminescence, 16 h, DNA damage induced by 5-fluorouridine; activity change, negative = inhibition: at 46.1 µM (top of the series)
Outline: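 Luminescence from the luciferase reporter, measured 30 min after ONE-Glo reagent at room temperature, was the read-out. Beforehand, 2,000 cells per well were exposed for 16 hr at 37 °C to 5-fluorouridine together with compound or vehicle.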
% is scaled to controls: 0 for no effect and ±100 for the full control effect; potency is read from the fitted curve at half-maximal effect.

| SMILES | Potency | activity change, negative = inhibition |
| --- | --- | --- |
| COCCN(CCOC)C(=O)c1cc2c(=O)n3ccccc3nc2s1 | inconclusive: 20.6 µM [activator, single point] | – |
| C=CCn1c(O)c(CN2CCCCC2)c(C)c(C#N)c1=O | – | inactive: -10.6% |
| O=C(CC1CCCCC1)NCc1ccccc1 | inconclusive: 18.3 µM [activator, partial curve] | – |
| Cc1cc(C(=O)CSc2nc(N)cc(=O)[nH]2)c(C)n1CCc1ccc(Cl)cc1 | inconclusive: 14.6 µM [inhibitor, partial curve] | – |
| CCCN(CCC)CC(O)CN1C(=O)N(CN2C(=O)N(CC(O)CN(CCC)CCC)C(=O)C2(C)C)C(C)(C)C1=O (centres undefined) | – | inactive: -1.51% |
| CC(C)C(=O)Nc1ccc(NC(=O)c2ccc3c(c2)OCO3)cc1 | inconclusive: 14.6 µM [activator, partial curve] | – |
| CCCN1C(=O)/C(=N\OCC(=O)NCC(F)(F)F)c2ccccc21 | – | inactive: 2.65% |
| C=CCN1C(=O)N/C(=C/c2ccc(N3CCOCC3)o2)C1=O | inconclusive: 18.4 µM [inhibitor, single point] | – |
| Cc1[nH]n(-c2ccccc2)c(=O)c1C(=O)c1ccc(Cl)cc1 | inconclusive: 25.9 µM [inhibitor, single point] | – |
| CCN(CC)c1nc(Nc2ccc([N+](=O)[O-])cc2)nc(N(CC)CC)n1 | inconclusive: 20.6 µM [inhibitor, single point] | – |
| CC(=O)Nc1cccc(NC(=O)C(C)N2c3cccc4cccc(c34)S2(=O)=O)c1 (centres undefined) | – | inactive: -9.19% |
| Cc1noc(C)c1C(=O)Nc1ccc(C#N)cc1 | – | inactive: -2.67% |
| Cc1ccc(CC(NC(=O)C2CCCCC2)C(=O)O)cc1 (centres undefined) | inconclusive: 18.3 µM [activator, single point] | – |
| Cc1cc(NS(=O)(=O)c2ccc(NC(=O)c3cnc4scc(C)n4c3=O)cc2)nc(C)n1 | inconclusive: 25.9 µM [activator, single point] | – |
| C/C(=N\Nc1cc(Cl)nc(C)n1)c1ccccc1 | inconclusive: 14.6 µM [activator, partial curve] | – |
| O=C(c1ccccc1F)N1CCN(Cc2ccc3c(c2)OCO3)CC1 | inconclusive: 25.1 µM [inhibitor, single point] | – |
| C[C@H](CO)N1C[C@H](C)[C@@H](CN(C)C(=O)Nc2ccc(C(F)(F)F)cc2)Oc2ccc(NC(=O)C3CCCCC3)cc2C1=O | inconclusive: 20.6 µM [inhibitor, single point] | – |
| O=C(N/N=C/c1cccc(F)c1)NC1CCCCC1 | inconclusive: 18.4 µM [activator, partial curve] | – |
| O=C(Cc1n[nH]c(=O)c2ccccc12)OCC(=O)N(Cc1ccccc1)Cc1ccccc1 | inconclusive: 25.9 µM [inhibitor, single point] | – |
| COc1ccc(C2=NS(=O)(=O)N(C)C(C(=O)Nc3cc(C)ccc3O)=C2)cc1OC | inconclusive: 20.6 µM [inhibitor, partial curve] | – |
| CCN(CC(=O)Nc1c(F)cccc1F)C(=O)C1CCN(C(=O)c2ccc(Cl)cc2)CC1 | inconclusive: 0.0082 µM [activator, full curve, poor fit] | – |
| CCN1CCN(C(=O)c2nn(-c3ccc(C)cc3)c(=O)c3c2c2ccccc2n3C)CC1 | – | inactive: 17.9% |

| SMILES | Potency | activity change, negative = inhibition |
| --- | --- | --- |
| CC(=O)N1CCN(S(=O)(=O)c2ccc(C)cc2)C1c1ccc(N(C)C)cc1 (centres undefined) | – | inactive: -3.14% |
| CC1(C)CC(=O)C(C2C3=C(CC(C)(C)CC3=O)Oc3ccccc32)=C(O)C1 (centres undefined) | inconclusive: 16.4 µM [activator, partial curve, poor fit] | – |
| O=C(NCCc1cccnc1)C1CCC(=O)N(Cc2ccc(Cl)cc2)C1 (centres undefined) | – | inactive: 16.2% |
| O=C(CSc1nc(-c2ccco2)cc(C(F)(F)F)n1)N1CCc2ccccc2C1 | inconclusive: 23.1 µM [inhibitor, partial curve, poor fit] | – |
| Cc1ccc(N2/C(=N/c3nc(C)cc(C)n3)NC(=O)CC2C(=O)O)cc1 (centres undefined) | – | inactive: -5.29% |
| CCN(C[C@H]1N[C@@](Cc2ccccc2)(C(=O)OC)[C@H]2C(=O)N(C)C(=O)[C@@H]12)C(=O)Nc1ccc(C)cc1 | – | inactive: 1.65% |
| CNC(=S)N1CCc2cc(OC)c(OC)cc2C1COc1ccc(F)cc1 (centres undefined) | inconclusive: 10.3 µM [inhibitor, partial curve] | – |
| S=c1[nH]nc(-c2c[nH]c3ccccc23)o1 | – | inactive: -1.34% |
| Cc1nc(C)c(-c2csc(Nc3ccc(F)cc3)n2)s1 | inconclusive: 29.1 µM [inhibitor, single point] | – |
| CCCCNC(=O)N(C)c1nc2ccccc2s1 | inconclusive: 23.1 µM [activator, partial curve] | – |
| O=[N+]([O-])c1ccc(-c2nc(-c3ccncc3)no2)cc1 | inconclusive: 7.3 µM [activator, partial curve] | – |
| CCOC(=O)c1ccc(Nc2cc(C)nc(C)c2C(=O)OCC)cc1 | inconclusive: 23.1 µM [inhibitor, single point] | – |
| Cc1cc(C)c(C#N)c(SCC(O)CS(=O)(=O)Cc2ccccc2)n1 (centres undefined) | inconclusive: 32.6 µM [inhibitor, single point] | – |
| CCCNS(=O)(=O)c1ccc(CCC(=O)Nc2cc(Cl)ccc2Oc2ccccc2)cc1 | active: 23.1 µM | – |
| COc1ccc2[nH]c(=O)c(CN(Cc3cccnc3)S(=O)(=O)c3ccccc3F)cc2c1 | inconclusive: 5.17 µM [inhibitor, partial curve] | – |
| O=C(Cc1n[nH]c(=O)c2ccccc12)OCC(=O)c1ccccc1 | inconclusive: 35.5 µM [activator, single point] | – |
| O=C(CSc1n[nH]c(=O)n1C1CC1)Nc1cc(Cl)ccc1Oc1ccccc1 | inconclusive: 35.5 µM [inhibitor, single point] | – |
| CCCCCOc1ccc(CN2CCOCC2)cc1Cl | inconclusive: 11.6 µM [activator, partial curve] | – |
| CC1CN(S(=O)(=O)c2cccc(C(=O)N3CCC(C(N)=O)CC3)c2)CC(C)O1 (centres undefined) | – | inactive: 10.6% |
| COc1ccc(-c2[nH]ncc2CN2CCC(OCc3cccnc3)CC2)c(F)c1 | – | inactive: -0.275% |
| COc1ccc(CNCC(O)(c2ccccc2)c2ccccc2)cc1 | – | inactive: -8.32% |
| COc1cc(/C=C2/C(=O)ON=C2C)ccc1OCc1cccc(F)c1 | inconclusive: 18.3 µM [activator, partial curve] | – |

One compound at a time, as listed above.
CCCCCOc1ccc(CN2CCOCC2)cc1Cl reads Potency: inconclusive: 11.6 µM [activator, partial curve]
CCN(C[C@H]1N[C@@](Cc2ccccc2)(C(=O)OC)[C@H]2C(=O)N(C)C(=O)[C@@H]12)C(=O)Nc1ccc(C)cc1 reads activity change, negative = inhibition: inactive: 1.65%
CC1(C)CC(=O)C(C2C3=C(CC(C)(C)CC3=O)Oc3ccccc32)=C(O)C1 (centres undefined) reads Potency: inconclusive: 16.4 µM [activator, partial curve, poor fit]
